Laboratory results as given in patent publication US20200317755A1.
These are yes or no findings as the source states them, for the method shown. Some entries that bind do so weakly or less than the wild type.

Chains of the proteins cited; added tags and fusions are not shown. Residues count along the entry.
UniProt Q32ZE1, residues 291-694: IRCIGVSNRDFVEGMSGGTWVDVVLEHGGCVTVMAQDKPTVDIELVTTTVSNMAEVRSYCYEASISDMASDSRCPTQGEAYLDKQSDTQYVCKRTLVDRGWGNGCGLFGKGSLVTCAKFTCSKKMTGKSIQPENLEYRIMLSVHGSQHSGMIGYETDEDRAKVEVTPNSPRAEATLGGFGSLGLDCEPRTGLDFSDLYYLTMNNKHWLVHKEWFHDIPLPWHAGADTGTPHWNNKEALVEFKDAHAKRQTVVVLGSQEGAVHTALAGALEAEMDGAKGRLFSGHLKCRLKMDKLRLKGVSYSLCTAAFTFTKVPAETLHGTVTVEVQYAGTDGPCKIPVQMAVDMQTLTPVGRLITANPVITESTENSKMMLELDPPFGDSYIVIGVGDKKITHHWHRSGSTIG

Key:
[1] = molecular target: ZIKV E protein (Zika virus) (UniProt Q32ZE1); assay: ELISA, coated antigen
[2] = molecular target: ZIKV EDIII (Zika virus); assay: ELISA, coated antigen
[3] = molecular target: ZIKV E protein (Zika virus) (UniProt Q32ZE1); assay: ELISA (FIG. 1 and FIG. 2)
[4] = molecular target: ZIKV EDIII (Zika virus); assay: ELISA (FIG. 1 and FIG. 2)

Measured: binding

B1: ZKA64 (antibody, V domains shown)
VH: QVQLVQSGAEVKKPGASVKVSCKASGYTFTGYHIDWVRQARGQGLEWMGRINPNSGGTNYAQKFQGRVTMTRDTSISTAYMQLSRLRSDDSAVYYCARMSSSIWGFDHWGQGTLVTVSS
VL: EIVMTQSPATLSVSPGERATLSCRASQSVLINLAWYQQKPGQAPRLLIYGASSRATGIPARFSGSGSGTEFTLTISSLQSEDFAVYYCQQYNDWPPITFGQGTRLEIK
binds: all assays above
